In paper PMC7060337:
Results are given in words; binding and its absence hold for the method and conditions named. In cells and extracts the contact can be indirect. Binding can be weak; no strength is given.

Molecular target: GST-tagged NDRG1 deletion mutant Δ2 (α/β hydrolase fold domain 90–306AA deleted)
Experiment: pull-down; GST fusion proteins immobilised on Glutathione Sepharose 4B, incubated with total cell lysate of HUVECs overnight at 4 °C; X-buffer (50 mM Tris-HCl pH 8.0, 1 mM EDTA, 120 mM NaCl, 0.5% NP-40, 10% glycerol, 1 mM PMSF); western blot with anti-PLCγ1; only the target purified

- binding: binds
B1: phospholipase Cγ1 (PLCγ1), endogenous in HUVECs (enzyme, UniProt P19174 1-1290)
chain: MAGAASPCANGCGPGAPSDAEVLHLCRSLEVGTVMTLFYSKKSQRPERKTFQVKLETRQITWSRGADKIEGAIDIREIKEIRPGKTSRDFDRYQEDPAFRPDQSHCFVILYGMEFRLKTLSLQATSEDEVNMWIKGLTWLMEDTLQAPTPLQIERWLRKQFYSVDRNREDRISAKDLKNMLSQVNYRVPNMRFLRERLTDLEQRSGDITYGQFAQLYRSLMYSAQKTMDLPFLEASTLRAGERPELCRVSLPEFQQFLLDYQGELWAVDRLQVQEFMLSFLRDPLREIEEPYFFLDEFVTFLFSKENSVWNSQLDAVCPDTMNNPLSHYWISSSHNTYLTGDQFSSESSLEAYARCLRMGCRCIELDCWDGPDGMPVIYHGHTLTTKIKFSDVLHTIKEHAFVASEYPVILSIEDHCSIAQQRNMAQYFKKVLGDTLLTKPVEISADGLPSPNQLKRKILIKHKKLAEGSAYEEVPTSMMYSENDISNSIKNGILYLEDPVNHEWYPHYFVLTSSKIYYSEETSSDQGNEDEEEPKEVSSSTELHSNEKWFHGKLGAGRDGRHIAERLLTEYCIETGAPDGSFLVRESETFVGDYTLSFWRNGKVQHCRIHSRQDAGTPKFFLTDNLVFDSLYDLITHYQQVPLRCNEFEMRLSEPVPQTNAHESKEWYHASLTRAQAEHMLMRVPRDGAFLVRKRNEPNSYAISFRAEGKIKHCRVQQEGQTVMLGNSEFDSLVDLISYYEKHPLYRKMKLRYPINEEALEKIGTAEPDYGALYEGRNPGFYVEANPMPTFKCAVKALFDYKAQREDELTFIKSAIIQNVEKQEGGWWRGDYGGKKQLWFPSNYVEEMVNPVALEPEREHLDENSPLGDLLRGVLDVPACQIAIRPEGKNNRLFVFSISMASVAHWSLDVAADSQEELQDWVKKIREVAQTADARLTEGKIMERRKKIALELSELVVYCRPVPFDEEKIGTERACYRDMSSFPETKAEKYVNKAKGKKFLQYNRLQLSRIYPKGQRLDSSNYDPLPMWICGSQLVALNFQTPDKPMQMNQALFMTGRHCGYVLQPSTMRDEAFDPFDKSSLRGLEPCAISIEVLGARHLPKNGRGIVCPFVEIEVAGAEYDSTKQKTEFVVDNGLNPVWPAKPFHFQISNPEFAFLRFVVYEEDMFSDQNFLAQATFPVKGLKTGYRAVPLKNNYSEDLELASLLIKIDIFPAKENGDLSPFSGTSLRERGSDASGQLFHGRAREGSFESRYQQPFEDFRISQEHLADHFDSRERRAPRRTRVNGDNRL
